No constants are given. Whether binding was seen depends on the method and setting. In cells and extracts the contact can be indirect. Some binding calls cover weakened binding; strength is not graded here.
How the values were obtained:
[1] = target: GFP-C-RAF (301-648) (human) (UniProt P04049); assay: pull-down; lysates of HEK-293T cells co-transfected with myc-HERC1 (1-1413) and GFP or GFP-C-RAF fusion constructs incubated with GFP-TrapA beads 2 h at 4°C, four washes in NP40 buffer; immunoblot
[2] = target: HERC1, endogenous rat (rat (endogenous in rat liver)); assay: co-IP; supernatants of rat liver lysates immunoprecipitated with anti-HERC1 antibodies or pre-immune serum, protein A-Sepharose, NP40 buffer, immunoblot
[3] = target: HERC1 (E3 ubiquitin ligase HERC1), endogenous human (human (endogenous in HEK-293T and HeLa)) (UniProt Q15751); assay: co-IP; supernatants of HEK-293T lysates (untransfected, transfected with C-RAF-GFP, or serum-deprived overnight and stimulated with 120 ng/ml EGF for 5 min) incubated with anti-HERC1 polyclonal antibody Bvg6 or pre-immune serum 2 h at 4°C, protein A-Sepharose 1 h, four washes in NP40 buffer (50 mM Tris-HCl pH 7.5, 150 mM NaCl, 50 mM NaF, 0.5% NP40), immunoblot
[4] = target: GFP-HERC1 (1-1334) (human) (UniProt Q15751); assay: pull-down; lysates of HEK-293T cells transfected with GFP or GFP-HERC1 fusion constructs incubated with GFP-TrapA beads 2 h at 4°C, four washes in NP40 buffer; endogenous C-RAF detected by immunoblot
[5] = target: GFP-HERC1 (1-2958) (human) (UniProt Q15751); assay: as above
[6] = target: GFP-HERC1 (1-412) (human) (UniProt Q15751); assay: as above
[7] = target: HERC1 (E3 ubiquitin ligase HERC1), endogenous human (human (endogenous in HEK-293T and HeLa)) (UniProt Q15751); assay: co-IP; supernatants of HeLa cell lysates immunoprecipitated with anti-HERC1 antibodies or pre-immune serum, protein A-Sepharose, NP40 buffer, immunoblot

Sequences of proteins named here, by UniProt entry; tags and fusion partners are left off. A change or cut given only in a name is not applied to a line headed by its entry. Residues count along the entry.
UniProt Q15751: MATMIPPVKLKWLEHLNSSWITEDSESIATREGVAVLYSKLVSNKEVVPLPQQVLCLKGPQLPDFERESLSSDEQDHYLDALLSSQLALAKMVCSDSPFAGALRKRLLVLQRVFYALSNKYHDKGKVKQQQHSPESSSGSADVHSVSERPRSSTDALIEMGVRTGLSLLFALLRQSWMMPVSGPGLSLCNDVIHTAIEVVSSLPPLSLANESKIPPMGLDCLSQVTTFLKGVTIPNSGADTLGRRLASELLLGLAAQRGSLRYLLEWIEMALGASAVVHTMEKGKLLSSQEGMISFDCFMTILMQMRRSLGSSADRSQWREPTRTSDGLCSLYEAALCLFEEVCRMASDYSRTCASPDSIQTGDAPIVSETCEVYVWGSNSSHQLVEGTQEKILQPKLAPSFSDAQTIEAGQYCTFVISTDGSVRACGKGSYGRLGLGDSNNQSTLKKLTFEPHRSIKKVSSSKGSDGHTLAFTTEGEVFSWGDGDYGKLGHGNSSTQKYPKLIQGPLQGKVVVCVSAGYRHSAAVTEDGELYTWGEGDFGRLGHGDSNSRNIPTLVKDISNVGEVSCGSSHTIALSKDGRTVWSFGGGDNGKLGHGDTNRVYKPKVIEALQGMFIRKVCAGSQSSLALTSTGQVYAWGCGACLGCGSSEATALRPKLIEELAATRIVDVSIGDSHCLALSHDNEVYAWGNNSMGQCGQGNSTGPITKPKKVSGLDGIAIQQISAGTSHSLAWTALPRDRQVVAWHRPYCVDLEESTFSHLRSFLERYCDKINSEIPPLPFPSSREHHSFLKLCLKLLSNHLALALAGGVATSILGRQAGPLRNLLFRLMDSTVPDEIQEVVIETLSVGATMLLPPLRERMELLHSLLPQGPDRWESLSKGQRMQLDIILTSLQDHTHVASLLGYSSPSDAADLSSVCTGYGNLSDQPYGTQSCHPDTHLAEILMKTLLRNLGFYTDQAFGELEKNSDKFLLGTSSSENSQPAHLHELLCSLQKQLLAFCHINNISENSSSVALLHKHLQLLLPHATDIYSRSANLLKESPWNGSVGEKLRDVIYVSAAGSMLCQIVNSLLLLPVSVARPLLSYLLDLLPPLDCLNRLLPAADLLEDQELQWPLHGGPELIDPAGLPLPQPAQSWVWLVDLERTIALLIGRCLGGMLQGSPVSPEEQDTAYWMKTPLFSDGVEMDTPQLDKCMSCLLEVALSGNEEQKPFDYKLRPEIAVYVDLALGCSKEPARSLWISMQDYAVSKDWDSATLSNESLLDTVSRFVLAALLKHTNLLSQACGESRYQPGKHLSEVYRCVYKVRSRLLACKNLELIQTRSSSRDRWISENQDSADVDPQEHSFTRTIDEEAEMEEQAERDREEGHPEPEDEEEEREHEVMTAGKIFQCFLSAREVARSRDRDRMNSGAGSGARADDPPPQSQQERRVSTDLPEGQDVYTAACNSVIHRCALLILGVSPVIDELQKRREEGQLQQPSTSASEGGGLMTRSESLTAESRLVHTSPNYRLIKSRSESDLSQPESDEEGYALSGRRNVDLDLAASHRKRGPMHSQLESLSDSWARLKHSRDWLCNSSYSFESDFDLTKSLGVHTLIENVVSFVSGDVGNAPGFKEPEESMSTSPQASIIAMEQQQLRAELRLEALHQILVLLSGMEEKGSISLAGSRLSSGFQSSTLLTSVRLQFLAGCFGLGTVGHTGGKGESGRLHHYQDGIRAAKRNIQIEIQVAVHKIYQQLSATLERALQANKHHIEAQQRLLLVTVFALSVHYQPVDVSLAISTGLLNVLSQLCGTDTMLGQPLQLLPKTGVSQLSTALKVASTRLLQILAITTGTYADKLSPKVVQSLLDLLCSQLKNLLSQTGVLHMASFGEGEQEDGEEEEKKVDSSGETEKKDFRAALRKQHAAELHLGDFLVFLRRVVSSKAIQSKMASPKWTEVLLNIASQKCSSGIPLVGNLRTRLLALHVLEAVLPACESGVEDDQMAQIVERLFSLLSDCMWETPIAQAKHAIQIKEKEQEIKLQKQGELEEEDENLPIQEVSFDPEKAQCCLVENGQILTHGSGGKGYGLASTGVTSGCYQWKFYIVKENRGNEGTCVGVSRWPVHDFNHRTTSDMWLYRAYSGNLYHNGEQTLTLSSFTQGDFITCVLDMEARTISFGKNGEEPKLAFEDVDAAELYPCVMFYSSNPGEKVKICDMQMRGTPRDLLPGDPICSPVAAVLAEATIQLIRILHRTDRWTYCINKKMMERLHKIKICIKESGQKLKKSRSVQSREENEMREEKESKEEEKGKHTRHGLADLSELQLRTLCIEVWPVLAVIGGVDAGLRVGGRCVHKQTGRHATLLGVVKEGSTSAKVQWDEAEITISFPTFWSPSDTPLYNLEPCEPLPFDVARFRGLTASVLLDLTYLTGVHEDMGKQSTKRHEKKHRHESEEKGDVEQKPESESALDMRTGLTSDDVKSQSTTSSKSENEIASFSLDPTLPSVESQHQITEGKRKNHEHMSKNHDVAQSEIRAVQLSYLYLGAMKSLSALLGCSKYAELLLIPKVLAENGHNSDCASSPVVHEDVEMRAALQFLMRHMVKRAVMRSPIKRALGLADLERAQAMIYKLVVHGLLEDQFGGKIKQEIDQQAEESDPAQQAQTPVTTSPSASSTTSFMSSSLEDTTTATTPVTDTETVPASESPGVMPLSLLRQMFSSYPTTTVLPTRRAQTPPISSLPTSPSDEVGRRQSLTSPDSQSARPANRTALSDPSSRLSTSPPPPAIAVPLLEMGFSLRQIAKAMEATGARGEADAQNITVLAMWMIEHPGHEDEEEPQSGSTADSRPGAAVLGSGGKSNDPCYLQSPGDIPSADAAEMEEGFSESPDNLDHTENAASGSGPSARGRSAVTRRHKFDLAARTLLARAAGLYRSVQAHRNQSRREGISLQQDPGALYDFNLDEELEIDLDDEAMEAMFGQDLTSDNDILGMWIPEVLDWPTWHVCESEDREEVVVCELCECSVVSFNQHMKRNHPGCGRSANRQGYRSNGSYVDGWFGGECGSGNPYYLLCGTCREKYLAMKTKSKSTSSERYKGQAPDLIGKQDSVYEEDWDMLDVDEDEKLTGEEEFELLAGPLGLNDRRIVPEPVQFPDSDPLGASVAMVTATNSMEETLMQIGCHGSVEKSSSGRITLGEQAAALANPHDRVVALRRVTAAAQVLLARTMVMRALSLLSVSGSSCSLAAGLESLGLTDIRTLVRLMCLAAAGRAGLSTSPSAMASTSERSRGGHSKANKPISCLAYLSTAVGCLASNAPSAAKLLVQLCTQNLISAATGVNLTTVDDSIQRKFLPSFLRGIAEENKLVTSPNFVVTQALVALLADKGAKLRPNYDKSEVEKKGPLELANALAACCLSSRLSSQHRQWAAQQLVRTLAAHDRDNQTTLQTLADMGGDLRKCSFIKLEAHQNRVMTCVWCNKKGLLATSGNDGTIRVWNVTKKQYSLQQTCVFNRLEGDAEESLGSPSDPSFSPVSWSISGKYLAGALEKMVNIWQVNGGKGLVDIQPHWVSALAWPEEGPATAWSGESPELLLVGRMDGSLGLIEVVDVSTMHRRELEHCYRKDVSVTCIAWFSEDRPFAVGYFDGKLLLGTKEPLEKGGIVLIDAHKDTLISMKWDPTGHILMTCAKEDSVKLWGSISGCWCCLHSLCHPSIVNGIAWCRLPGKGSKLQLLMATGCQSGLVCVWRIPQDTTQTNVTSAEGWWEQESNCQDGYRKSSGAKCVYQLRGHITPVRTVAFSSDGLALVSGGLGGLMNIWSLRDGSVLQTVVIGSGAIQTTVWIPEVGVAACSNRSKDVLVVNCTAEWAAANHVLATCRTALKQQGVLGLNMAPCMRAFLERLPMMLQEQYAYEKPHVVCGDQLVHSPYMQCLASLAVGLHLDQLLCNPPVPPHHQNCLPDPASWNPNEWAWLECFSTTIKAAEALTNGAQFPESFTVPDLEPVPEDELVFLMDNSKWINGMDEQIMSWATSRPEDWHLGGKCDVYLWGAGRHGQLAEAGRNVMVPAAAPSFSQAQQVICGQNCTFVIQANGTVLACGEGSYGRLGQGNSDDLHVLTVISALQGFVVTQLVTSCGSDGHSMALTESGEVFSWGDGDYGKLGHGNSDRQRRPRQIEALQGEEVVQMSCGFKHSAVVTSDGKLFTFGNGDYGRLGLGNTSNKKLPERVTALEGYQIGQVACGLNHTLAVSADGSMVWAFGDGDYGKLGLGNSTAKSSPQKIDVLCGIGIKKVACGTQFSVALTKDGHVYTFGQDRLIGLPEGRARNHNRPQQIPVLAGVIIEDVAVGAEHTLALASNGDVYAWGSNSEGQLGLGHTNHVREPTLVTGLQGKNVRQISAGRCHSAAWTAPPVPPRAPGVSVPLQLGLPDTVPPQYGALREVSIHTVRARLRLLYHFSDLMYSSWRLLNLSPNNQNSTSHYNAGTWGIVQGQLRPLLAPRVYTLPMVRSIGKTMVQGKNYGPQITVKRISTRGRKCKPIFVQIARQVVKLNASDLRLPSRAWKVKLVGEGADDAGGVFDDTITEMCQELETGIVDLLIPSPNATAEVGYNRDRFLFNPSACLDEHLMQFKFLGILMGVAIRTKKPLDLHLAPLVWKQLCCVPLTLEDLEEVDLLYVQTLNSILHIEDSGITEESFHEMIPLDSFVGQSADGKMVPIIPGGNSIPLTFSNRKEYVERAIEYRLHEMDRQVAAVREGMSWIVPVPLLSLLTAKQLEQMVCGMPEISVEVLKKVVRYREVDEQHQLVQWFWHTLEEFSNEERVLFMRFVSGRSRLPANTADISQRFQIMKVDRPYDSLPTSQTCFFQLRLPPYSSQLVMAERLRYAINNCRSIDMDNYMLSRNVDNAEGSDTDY
GFP-HERC1 (1-2958): residues 1-2958 of Q15751
GFP-HERC1 (1-1334): residues 1-1334 of Q15751
GFP-HERC1 (1-412): residues 1-412 of Q15751
UniProt P15056: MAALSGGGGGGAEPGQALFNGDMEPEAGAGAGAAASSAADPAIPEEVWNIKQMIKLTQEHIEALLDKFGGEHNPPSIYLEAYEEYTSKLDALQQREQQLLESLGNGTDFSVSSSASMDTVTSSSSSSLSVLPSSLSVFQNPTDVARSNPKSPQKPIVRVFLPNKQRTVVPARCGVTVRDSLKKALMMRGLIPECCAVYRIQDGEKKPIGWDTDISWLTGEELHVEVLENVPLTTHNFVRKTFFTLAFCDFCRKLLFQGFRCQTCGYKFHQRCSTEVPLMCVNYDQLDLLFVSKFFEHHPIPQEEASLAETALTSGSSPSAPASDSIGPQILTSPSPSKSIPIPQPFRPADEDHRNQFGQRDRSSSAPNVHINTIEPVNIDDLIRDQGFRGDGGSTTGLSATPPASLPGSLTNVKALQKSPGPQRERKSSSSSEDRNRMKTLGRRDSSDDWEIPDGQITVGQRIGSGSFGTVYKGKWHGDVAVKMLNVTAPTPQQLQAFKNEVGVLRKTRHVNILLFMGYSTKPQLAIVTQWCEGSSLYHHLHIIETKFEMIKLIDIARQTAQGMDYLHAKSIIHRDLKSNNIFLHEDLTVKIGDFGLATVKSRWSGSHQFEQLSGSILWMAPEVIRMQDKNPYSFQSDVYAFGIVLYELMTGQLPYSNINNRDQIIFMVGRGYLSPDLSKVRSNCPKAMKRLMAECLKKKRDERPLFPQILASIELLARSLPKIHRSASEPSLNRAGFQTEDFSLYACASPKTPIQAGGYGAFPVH

In the case of “myc-HERC1 (1-1413) (from UniProt Q15751 1-1413) (domain or fragment)”, the binding [1] is reported as “binds”.

With “C-RAF, endogenous rat (from UniProt P11345 1-648)” the binding [2] was “binds”.

In the case of “B-RAF, endogenous human (from UniProt P15056 1-766)”, the binding [3] is reported as “binds”.

With C-RAF-GFP (from UniProt P04049 1-648) the binding [3] was “binds”.

In the case of “C-RAF, endogenous human (from UniProt P04049 1-648)”, the binding [3] is reported as “binds”, the binding [4] is reported as “binds” and the binding [5] is reported as “binds”. For the same substance, the binding [6] was “binds” and the binding [7] was “binds”.

From publication PMC6101136
